For at least one entry, the source does not settle the construct or the ends of the probe. The comparison behind a weaker result is the experiment's own reference, which may not be listed here.
Target: PdhR (his-tagged) (Escherichia coli) (UniProt P0ACL9)
Test: EMSA
Details: 0.1 pmol DNA, 54 pmol PdhR, very weak, small amount shifted; 0.1 pmol of each DNA fragment with 54 pmol PdhR; pH and temperature not given; recombinant protein; protein details: His; label: 5'DY682 (strand 1), 5'DY782 (strand 2)

By UniProt entry, the sequences of proteins in these tests, tags left out. Where a name states a change or a piece, a line headed by the entry shows the natural chain unless it says otherwise.
UniProt P0ACL9: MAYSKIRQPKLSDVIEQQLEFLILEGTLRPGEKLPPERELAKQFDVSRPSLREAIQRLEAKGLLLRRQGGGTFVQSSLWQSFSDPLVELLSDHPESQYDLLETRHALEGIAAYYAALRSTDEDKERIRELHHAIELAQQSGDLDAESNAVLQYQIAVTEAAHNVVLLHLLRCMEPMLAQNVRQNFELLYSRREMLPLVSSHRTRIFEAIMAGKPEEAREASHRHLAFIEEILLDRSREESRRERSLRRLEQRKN

## TCGGTATGCCTTGTGACTGGCTTGACAAGCTTTTCCTCAGCTCC (double strand) [MraZop]
  binding result: binds more weakly
